Measurements published in PMC7193638.

Experiments:
Assay in all cases: two-hybrid; UAS-GAL4 drop test with cloned ORFs: mated diploid cells, 10 µl of 10^6 cells/ml per drop, on SD-leu-trp and SD-leu-trp-his-ade plates, 3 days at 30 °C; empty pGBKT7-SfiI and pGADT7-SfiI as negative controls
[1] = molecular target: European robin cryptochrome 1a (ErCry1a) (European robin (Erithacus rubecula))
[2] = molecular target: European robin cryptochrome 4 (ErCry4), full length (European robin (Erithacus rubecula))
[3] = molecular target: Cry4 of Gallus gallus (GgCry4), full length (Gallus gallus)

| binding [1] | binding [2] | binding [3] | Binder |
| --- | --- | --- | --- |
| binds | no binding |  | period protein 2 of Gallus gallus (GgPer2), full length (protein, UniProt Q8QGQ8 1-1344) MDCIEVRGFYSSTEEQNPEQQADISENISSLFSLKEQQKMSEYSGLASNHSQMIAEDSEIQPKPEHSPEVLQEDIEMSSGSSGNDFSGNETNENYSSGHDSHGHESDENGKDSAMLMESSDCHKSSSSNAFSLMIANSEHNQSSSGCSSEQSTKAKTQKELLKTLQELKAHLPAEKRIKGKSSVLTTLKYALKSIKQVKANEEYYQLLMINESQPSGLNVSSYTVEEVETITSEYIMKNADMFAVAVSLITGKIVYISDQAAAILRCKRSYFKNAKFVELLAPQDVSVFYTSTTPYRLPSWNICSRAESSTQDCMEEKSFFCRISAGKERENEICYHPFRMTPYLIKVQDPEVAEDQLCCVLLAEKVHSGYEAPRIPPDKRIFTTTHTPTCLFQDVDERAVPLLGYLPQDLIGTPVLVHLHPNDRPLMLAIHKKILQYGGQPFDYSPIRFCTRNGDYITMDTSWSSFINPWSRKVSFIIGRHKVRTGPLNEDVFAAPNYTEDRILHPSVQEITEQIYRLLLQPVHNSGSSGYGSLGSNGSHEHLMSVASSSDSTGNNNDDTQKDKTISQDARKVKTKGQHIFTENKGKLEYKREPSAEKQNGPGGQVKDVIGKDTTATAAPKNVATEELAWKEQPVYSYQQISCLDSVIRYLESCNVPGTAKRKCEPSSSVNSSVHEQKASVNAIQPLGDSTVLKSSGKSSGPPVVGAHLTSLALPGKPESVVSLTSQCSYSSTIVHVGDKKPQPELEMIEDGPSGAEVLDTQLPAPPPSSTHVNQEKESFKKLGLTKEVLAVHTQKEEQSFLNKFKEIKRFNIFQSHCNYYLQDKPKGRPGERGGRGQRNGTSGMDQPWKKSGKNRKSKRIKPQESSDSTTSGTKFPHRFPLQGLNTTAWSPSDTSQASYSAMSFPTVMPAYPLPVFPAAAGTVPPAPETSVSGFNQLPDSGNTCSMQPSQFSAPLMTPVVALVLPNYVYPEMNNSLPQTLYHSQANFPTHPAFSSQTVFPAQPPFTTPSPFPQQAFFPMQPFHYNPPAEIEKVPVTETRNEPSRSCTPQSVGPQDQASPPLFQSRCSSPLNLLQLEENTKTVESGAPAGLHGALNEEGTIGKIMTTDAGSGKGSLPAESPMDAQNSDALSMSSVLLDILLQEDACSGTGSASSGSGVSAAAESLGSGSNGCDMSGSRTGSSETSHTSKYFGSIDSSENHHKTKMKAEIEESEHFIKYVLQDPIWLLMANTDDTVMMTYQLPSRDLETVLKEDKLKLKQMQKLQPKFTEDQKRELIEVHPWIQQGGLPKTVANSECIFCEDNIQSNFYTSYDEEIHEMDLNEMIEDSGENNLVPLSQVNEEQT |
|  |  | no binding | IscA1 of Drosophila melanogaster (DmIscA1), full length (protein, UniProt Q8T3X9 1-130) MATRVVATATVRAVKGRKLIPTRAALTLTPAAVLRIKTLLQDKPDMVGLKVGVRQRGCNGLSYTLDYASQKDKLDEEVVQDGVKVFIDKKAQLSLLGTEMDFVESKLSSEFVFNNPNIKGTCGCGESFSM |

No constants are given. Whether binding was seen depends on the method and setting. For part of these data: Binding calls can cover weak binding; strength is not graded here.
